{"source": "patent US8571804B2", "about": "“Disease treatment by predicting drug association” (Pharnext, priority 2007, dated 2013)", "origin": "cited, not measured here", "system": "PMP22 protein", "details": "Schwann cell, in vitro", "note": "At least one compound was matched to its structure with a doubt left."}
{"smiles": "C=C[C@@]1(C)CC(=O)[C@]2(O)[C@@]3(C)[C@@H](O)CCC(C)(C)[C@@H]3[C@H](O)[C@H](OC(C)=O)[C@@]2(C)O1", "note": "[forskolin]", "values": [{"measurement": "expression of PMP22 protein", "value": "increases the expression of PMP22 protein"}]}
